Results: PubChem BioAssay AID485353 (National Center for Advancing Translational Sciences (NCATS), 2010)
Screen size: about 330,000 compounds; about 610 (0.18%) were called active. Inconclusive means that the source gave no clear call. Such entries were picked first, then a sample of the others. Calls come from the whole dose curve. Where the call is inconclusive, the potency comes from a doubtful curve fit.

assay: qHTS of Yeast-based Assay for SARS-CoV PLP; note: nearly all actives have a fitted effect of over 55% in size; for activity, positive = growth rescue: 0% is about no effect; settings: S. cerevisiae expressing SARS-CoV PLpro; Potency: growth rescue; activity, positive = growth rescue: at 32.9 µM (top of the series)
Potency is the fitted concentration of half-maximal effect.

Question: With `Cc1nn(CCCC(=O)NCc2ccc(F)cc2)c(=O)c2nccn12` as the molecule, how does the Potency read?
Answer: Its Potency is inconclusive: 11.2 µM [activator, single point].

Question: With `N#CCCn1cc(C(=O)Nc2ccccc2Br)c(-c2ccc3c(c2)OCCO3)n1` as the molecule, how does the Potency read?
Answer: Its Potency is inconclusive: 3.16 µM [activator, partial curve].

Question: Which “activity, positive = growth rescue” value does the source give for `N#CC1=C2SCN(Cc3ccco3)CN2C(=O)CC1c1ccc(Cl)cc1` (configuration not stated) here?
Answer: The value was inactive: 1.22%.

Question: With `CCc1nnc(NC(=O)C2CCCN2S(=O)(=O)c2ccccc2)s1` (configuration not stated) as the molecule, how does the Potency read?
Answer: The Potency was inconclusive: 15.8 µM [activator, partial curve].

Question: Which Potency does the source give for `Cc1ccc(/C=N/NC(=O)c2c(-c3ccccc3)noc2C)c(O)c1` here?
Answer: The Potency was inconclusive: 11.2 µM [activator, single point].

Question: For `COc1ccnc(Oc2ccc(C)cc2C)c1C#N`, which Potency is on record?
Answer: Its Potency is inconclusive: 20 µM [activator, single point].

Question: For `O=C(Cc1ccc([N+](=O)[O-])cc1)Nc1ccon1`, which Potency is on record?
Answer: The Potency was inconclusive: 3.55 µM [activator, single point].

Question: With `O=C(N/N=C/c1cc(Cl)ccc1O)c1ccc(Br)cc1` as the molecule, how does the Potency read?
Answer: The Potency was inconclusive: 20 µM [activator, single point].

Question: For `CC(=O)Nc1ccc(NC(=O)C(C)OC(=O)c2c(NC(C)=O)sc(C)c2C)cc1` (configuration not stated), which Potency is on record?
Answer: The Potency was inconclusive: 20 µM [activator, single point].

Question: Which Potency does the source give for `COc1ccc(-c2nc3ccc(C(=O)NCCCN4CCOCC4)cc3nc2-c2ccc(OC)cc2)cc1` here?
Answer: Its Potency is inconclusive: 4.47 µM [activator, single point].

Question: Which Potency does the source give for `CC(C)(C)c1ccccc1NC(=S)NC1CCCCC1` here?
Answer: The Potency was inconclusive: 2.82 µM [activator, single point].

Question: Which Potency does the source give for `O=C1OCCC1Sc1nnc(-c2ccc(Cl)cc2)n1Cc1ccccc1` (configuration not stated) here?
Answer: Its Potency is inconclusive: 10 µM [activator, partial curve].

Question: With `CN1CCN(/N=C/c2ccc(-c3ccc([N+](=O)[O-])cc3Cl)o2)CC1` as the molecule, how does the “activity, positive = growth rescue” value read?
Answer: Its value is inactive: -1.95%.

Question: For `COc1ccc(-n2nnnc2CNC(=O)C(=O)c2c[nH]c3ccccc23)cc1`, which “activity, positive = growth rescue” value is on record?
Answer: The value was inactive: -0.816%.

Question: For `CCc1cc(=O)oc2cc(OCC(=O)N3CCc4ccccc43)ccc12`, which “activity, positive = growth rescue” value is on record?
Answer: The value was inactive: 0.291%.

Question: With `Cc1cccc(NC(=S)Nc2ccccn2)c1C` as the molecule, how does the Potency read?
Answer: The Potency was inconclusive: 3.98 µM [activator, single point].

Question: With `CN(C)c1ccc(C2OC(=O)C(C)(C)C(=O)C2(C)C)cc1` (configuration not stated) as the molecule, how does the Potency read?
Answer: Its Potency is inconclusive: 20 µM [activator, single point].

Question: With `CCN1CCN(Cc2nnnn2C(C)(C)C)CC1` as the molecule, how does the Potency read?
Answer: Its Potency is inconclusive: 3.16 µM [activator, partial curve].

Question: Which Potency does the source give for `CN(C)S(=O)(=O)c1cccc(NC(=O)COC(=O)c2ccc([N+](=O)[O-])o2)c1` here?
Answer: Its Potency is inconclusive: 5.62 µM [activator, partial curve].

Question: For `CC(C)CC1Nc2ncnc(N3CCN(c4ccccc4)CC3)c2N(Cc2ccc(Br)cc2)C1=O` (configuration not stated), which “activity, positive = growth rescue” value is on record?
Answer: The value was inactive: 1.25%.

Question: Which Potency does the source give for `Cc1cc(=S)[nH]c2ccccc12` here?
Answer: The Potency was inconclusive: 14.1 µM [activator, partial curve].

Question: With `COC(=O)c1ccc(C2/C(=C(/O)c3ccc(Cl)cc3)C(=O)C(=O)N2C2CCS(=O)(=O)C2)cc1` (configuration not stated) as the molecule, how does the Potency read?
Answer: The Potency was inconclusive: 3.55 µM [activator, single point].

Question: Which Potency does the source give for `CC(C)C(=O)c1cn(CC(=O)NCC2CCCO2)c2ccccc12` (configuration not stated) here?
Answer: Its Potency is inconclusive: 17.8 µM [activator, single point].

Question: Which Potency does the source give for `Cc1ccc(-n2nc3c(=O)n(CCCC(=O)NCc4ccccc4C)nc(C)c3c2C)cc1` here?
Answer: Its Potency is inconclusive: 4.47 µM [activator, single point].

Question: With `Nc1nc(SCC(=O)OCc2ccccc2)[nH]c(=O)c1NC(=O)c1ccco1` as the molecule, how does the Potency read?
Answer: The Potency was inconclusive: 20 µM [activator, single point].

Question: For `COc1cc(Cl)c(C)cc1NC(=O)[C@@H]1CCCN1C(=O)c1cccs1`, which Potency is on record?
Answer: Its Potency is inconclusive: 11.2 µM [activator, partial curve, poor fit].

Question: For `CS(=O)(=O)N1CCN(CC(=O)NC2CCCC2)CC1`, which Potency is on record?
Answer: The Potency was inconclusive: 3.98 µM [activator, single point].

Question: For `CCn1c(C)nc2cc(C(=O)N/N=C(\C)c3ccc(OC)cc3O)ccc21`, which Potency is on record?
Answer: The Potency was inconclusive: 10 µM [activator, partial curve].

Question: Which Potency does the source give for `Cc1ccc(S(=O)(=O)NCC2CCC(C(=O)N3CCN(C)CC3)CC2)cc1` (configuration not stated) here?
Answer: The Potency was inconclusive: 0.398 µM [activator, full curve, poor fit].

Question: With `N#Cc1ccc(C2=CC(=O)C[C@H](c3ccc(Cl)cc3)C2)cc1` as the molecule, how does the “activity, positive = growth rescue” value read?
Answer: Its value is inactive: 6.11%.

Question: With `O=C(Nc1ccccc1Cl)N(Cc1nc2ccccc2c(=O)[nH]1)Cc1cccs1` as the molecule, how does the Potency read?
Answer: Its Potency is inconclusive: 22.4 µM [activator, single point].

Question: For `CCSc1nnc(N(CCC(=O)O)CCC(=O)O)s1`, which Potency is on record?
Answer: The Potency was inconclusive: 4.47 µM [activator, single point].

Question: With `CCOC(=O)Nc1ccc(S(=O)(=O)Nc2nccc(C)n2)cc1` as the molecule, how does the “activity, positive = growth rescue” value read?
Answer: Its value is inactive: -0.427%.

Question: With `CCN(CC)c1cc(C)c2ccccc2n1` as the molecule, how does the Potency read?
Answer: The Potency was inconclusive: 4.47 µM [activator, single point].

Question: With `CC(=O)Nc1ccc(S(=O)(=O)N(C)CC(=O)OCC(=O)NC(C)C23CC4CC(CC(C4)C2)C3)cc1` (configuration not stated) as the molecule, how does the Potency read?
Answer: Its Potency is inconclusive: 20 µM [activator, single point].

Question: With `Cc1ccc(NC(=O)CCCNC(=O)c2ccc(Cl)cc2)nc1` as the molecule, how does the “activity, positive = growth rescue” value read?
Answer: The value was inactive: 3.56%.

Question: For `COc1ccc(-c2nc(Cn3c(SCc4ccccc4F)nc4ccncc43)c(C)o2)cc1`, which Potency is on record?
Answer: The Potency was inconclusive: 3.98 µM [activator, single point].

Question: Which “activity, positive = growth rescue” value does the source give for `C#CCOCCOCCOCCNc1nc(N2CCN(C(=O)[C@H](CCC(=O)O)n3cc(C(N)Cc4ccc(O)cc4)nn3)CC2)nc(N2CCN(C(=O)[C@H](Cc3cc4ccccc4[nH]3)n3cc(C(N)CC(C)C)nn3)CC2)n1` (some centres not stated) here?
Answer: The value was inactive: -2.53%.

Question: Which “activity, positive = growth rescue” value does the source give for `COC(=O)c1cc(CSC(=N)N)ccc1OCCC(C)C` here?
Answer: The value was inactive: -0.347%.

Question: For `C(=N\NC(=Nc1ccccc1)c1ccccn1)/c1ccccn1`, which Potency is on record?
Answer: The Potency was inconclusive: 10 µM [activator, single point].

Question: For `COc1ccccc1CNC(=S)NCCc1ccccc1`, which Potency is on record?
Answer: The Potency was inconclusive: 3.98 µM [activator, single point].

Question: Which Potency does the source give for `CCN(CC)C1CCN(Cc2c(C(=O)N3CCCCCCC3)nc3ccc(Cl)cn23)C1` (configuration not stated) here?
Answer: Its Potency is inconclusive: 3.98 µM [activator, single point].
